# Measurements taken from patent US20220411750A1, “CELL STRUCTURE, PRODUCTION METHOD THEREOF, AND METHOD FOR EVALUATING HEPATOTOXICITY OF SUBSTANCE TO BE TESTED” (TOPPAN INC., priority 2019, published 2022).
# At least one structure is not confirmed: it was looked up by name or label, or the drawing left a doubt.
# Key:
# [1] = system: cell structure having a liver sinusoidal network produced using CMF (Example A); experiment: Toxicity evaluation by ATP assay, cell structure of Example A (produced using CMF); conditions: drug medium from day 7, replaced day 10, assay after 14 days, "Outside" = Outside measurement range
# [2] = system: cell structure having a liver sinusoidal network produced using heparin and a collagen solution (Example B); experiment: Toxicity evaluation by ATP assay, cell structure of Example B (produced using heparin and a collagen solution); conditions: "Outside" = Outside measurement range
Compound,IC50 Example A [1],IC50 Example B [2]
CCOC(=O)CN[C@@H](C(=O)N1CC[C@H]1C(=O)NCc1ccc(/C(N)=N\O)cc1)C1CCCCC1 [Ximelagatran],Outside,Outside
C[C@H]1COc2c(N3CCN(C)CC3)c(F)cc3c(=O)c(C(=O)O)cn1c23 [Levofloxacin],Outside,
